Data published in PMC12313893.
Construct, isoform or probe ends are uncertain for at least one entry. At least one verdict was read from the data and is not stated in words by the source.

Chains of the proteins cited; added tags and fusions are not shown. A line that says so, or that is headed by a name, gives the form on record, which may keep a tag or linker.
QTRT1 (catalytic subunit of TGT) + QTRT2 (accessory subunit of TGT), one chain, as listed by the source, chain 2 of 2: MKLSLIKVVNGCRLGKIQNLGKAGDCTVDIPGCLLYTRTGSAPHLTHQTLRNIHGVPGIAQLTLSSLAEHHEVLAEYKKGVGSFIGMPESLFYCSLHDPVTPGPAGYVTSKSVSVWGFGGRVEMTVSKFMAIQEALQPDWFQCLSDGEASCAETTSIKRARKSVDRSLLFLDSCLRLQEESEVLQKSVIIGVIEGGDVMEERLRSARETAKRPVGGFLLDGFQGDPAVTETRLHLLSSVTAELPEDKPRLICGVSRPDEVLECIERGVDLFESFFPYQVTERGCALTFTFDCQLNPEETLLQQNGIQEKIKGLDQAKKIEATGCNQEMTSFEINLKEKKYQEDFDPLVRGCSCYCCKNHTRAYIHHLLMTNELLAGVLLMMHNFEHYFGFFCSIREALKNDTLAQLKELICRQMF
QTRT1 (catalytic subunit of TGT) + QTRT2 (accessory subunit of TGT), one chain, as listed by the source, chain 1 of 2: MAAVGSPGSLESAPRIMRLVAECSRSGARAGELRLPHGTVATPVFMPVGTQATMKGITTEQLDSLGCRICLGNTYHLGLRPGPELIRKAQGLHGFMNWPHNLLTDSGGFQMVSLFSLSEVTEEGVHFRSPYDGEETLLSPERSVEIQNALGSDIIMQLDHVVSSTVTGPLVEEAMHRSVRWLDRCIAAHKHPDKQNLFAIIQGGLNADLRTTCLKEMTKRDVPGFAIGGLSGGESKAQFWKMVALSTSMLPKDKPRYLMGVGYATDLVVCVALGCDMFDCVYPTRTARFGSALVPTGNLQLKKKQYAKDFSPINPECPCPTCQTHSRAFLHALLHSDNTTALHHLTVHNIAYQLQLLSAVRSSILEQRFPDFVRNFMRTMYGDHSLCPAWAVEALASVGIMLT

Each sequence was assayed on QTRT1 (catalytic subunit of TGT) + QTRT2 (accessory subunit of TGT) (assay: covalent intermediate gel shift). Settings: none (unmodified transcript); recombinant protein; letters put together from the description.
“GGCCUUCGAUAGCUCAGUUGGUAGAGCGGAGGACUGUAGAUCCUUAGGUCGCUGGUUCGAAUCCGGCUCGAAGGA [m_tRNATyr (mature, GUA)]”: binds.
“GGCCUUCGAUAGCUCAGUUGGUAGAGCGGAGGACUGUAGGUCAUUGUUCUAGAAAUCCUUAGGUCGCUGGUUCGAAUCCGGCUCGAAGGA [m_pre-tRNATyr 1-4 (intron-containing)]”: binds.
“GGCCUUCGAUAGCUCAGUUGGUAGAGCGGAGGACUGUAGUCAGUACAAUAUGGUAAUCCUUAGGUCGCUGGUUCGAUUCCGGCUCGAAGGA [m_pre-tRNATyr 2-1 (intron-containing)]”: binds.
